The whole screen tested about 350,000 compounds, of which about 220 (0.063%) were called active. The inconclusive results got no clear call from the source; some entries with a clear call stand among them for comparison. The call rests on the fitted dose curve; in most records, active means well fitted activation curve with a large enough effect; inconclusive means small, poorly fitted or top-dose-only effect; inactive means no such curve, though single readings can be large or run the other way. Potencies beside an inconclusive call are fits to weak or partial responses and may not hold up.
Experiment: qHTS for Activators of Integrin-Mediated Alleviation for Muscular Dystrophy; further: nearly all actives have a fitted effect of over 60% in size;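 on activation: 100% = response of the positive control SU9516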
Conditions: alpha7betagal myoblasts, beta-gal FDG fluorescence, 48 h; activation: at 38.3 µM (top of the series)
How it was run: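 alpha7betagal+/- myoblasts (passage 13, 250/well) treated 48 h at 37C with compounds at 1:260 dilution of DMSO stock. Lysed, then beta-galactosidase activity read as FDG fluorescence (ex 480/em 540) after 30 min, with pre-read for autofluorescence.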
Potency means the concentration at half of the fitted maximal effect.

Q: Which activation does the source give for `CN(Cc1ccc(O)cc1)C1CCCCC1` here?
A: inactive: 2.22% [at 7.66 µM]

Q: Which Potency does the source give for `COc1ccc(C(C(=O)NC2CCCCC2)N(Cc2cccs2)C(=O)Cc2c[nH]c3ccccc23)cc1` (configuration not stated) here?
A: inactive

Q: With `COc1ccc(NC(=O)CCN2C(=O)c3ccccc3C2=O)cc1` as the compound, how does the Potency read?
A: inconclusive: 3.16 µM [activator, partial curve, poor fit]

Q: Which Potency does the source give for `Cc1ccccc1-c1nc(C#N)c(N2CCC(C)CC2)o1` here?
A: inactive

Q: With `O=C(CCCCCNC(=O)c1ccccc1)C[N+](=O)[O-]` as the compound, how does the Potency read?
A: inconclusive: 3.55 µM [activator, single point]

Q: Which Potency does the source give for `CC(OC(=O)c1cccc(Cl)c1)C(=O)NC1CCCCC1C` (configuration not stated) here?
A: inconclusive: 2 µM [activator, partial curve, poor fit]

Q: With `COc1cccc(CC(=O)Nc2sc3c(c2C(N)=O)CCCC3)c1` as the compound, how does the Potency read?
A: inactive

Q: Which Potency does the source give for `Cc1ccc(N2N=C(C(=O)O)CCC2=O)cc1Cl` here?
A: inconclusive: 7.08 µM [activator, partial curve, poor fit]

Q: Which Potency does the source give for `c1ccc(-c2nc(-c3ccco3)n3ccccc23)cc1` here?
A: inactive

Q: With `O=C(CCc1ccccc1)c1nnc(-c2ccccc2)o1` as the compound, how does the Potency read?
A: active: 10 µM

Q: With `O=C1Nc2ccc(S(=O)(=O)NCCCO)c3cccc1c23` as the compound, how does the Potency read?
A: inconclusive: 3.55 µM [activator, partial curve, poor fit]

Q: For `FC(F)Oc1cccc(NC(=S)N2CCN(c3ccccn3)CC2)c1`, which Potency is on record?
A: inactive

Q: With `Cc1ccc(NC(=O)[C@H](NC(=O)[C@@H]2Cc3ccccc3CN2)c2ccccc2)cc1C` as the compound, how does the Potency read?
A: inconclusive: 2.51 µM [activator, single point]

Q: Which Potency does the source give for `Clc1ccc2nc(CSc3ccccc3)cn2c1` here?
A: inconclusive: 28.2 µM [activator, single point]

Q: With `c1ccc2nc(-c3nc4ccccc4[nH]3)ccc2c1` as the compound, how does the Potency read?
A: inactive

Q: With `COc1ccc(NS(=O)(=O)c2c(F)cccc2F)cc1S(=O)(=O)N1CCOCC1` as the compound, how does the Potency read?
A: inactive

Q: Which activation does the source give for `COc1cc2cc(CN(Cc3nnnn3Cc3ccco3)C3CCCCC3)c(=O)[nH]c2cc1OC` here?
A: inconclusive: -46.4% [activator]

Q: Which Potency does the source give for `COC(=O)c1cn(NC(=O)c2ccc([N+](=O)[O-])cc2Cl)c(=O)c2ccccc12` here?
A: inconclusive: 2.24 µM [activator, partial curve]

Q: Which Potency does the source give for `Cc1ccc(-c2ccnc3[nH]n(-c4ccccc4)c(=O)c23)cc1` here?
A: inconclusive: 0.562 µM [activator, full curve, poor fit]

Q: Which Potency does the source give for `Cc1ccc(OCc2cc(C(=O)NCCn3cccn3)no2)cc1C` here?
A: inconclusive: 1.12 µM [activator, partial curve, poor fit]

Q: For `Cc1cc(C)c(NC(=S)NC(=O)c2c(Cl)c(C)nn2C)c([N+](=O)[O-])c1`, which Potency is on record?
A: inactive

Q: Which Potency does the source give for `COc1cccc(C2CC(c3ccc(Cl)cc3Cl)Nc3nc(N)nn32)c1` (configuration not stated) here?
A: inconclusive: 1 µM [activator, full curve, poor fit]

Q: Which Potency does the source give for `COc1ccc(CN2C(=O)c3ccc(C(=O)O)cc3C2=O)cc1` here?
A: inconclusive: 28.2 µM [activator, single point]

Q: With `CCOC(=O)CC(=O)CSc1nc2nc(C)cc(C)n2n1` as the compound, how does the activation read?
A: inconclusive: 1.56% [activator]

Q: With `CCC1CCCCN1C(=O)CSc1nc2ncccc2[nH]1` (configuration not stated) as the compound, how does the Potency read?
A: inactive

Q: For `Cc1ncoc1C(=O)N1CCc2c([nH]c3ccccc23)C1C1CCCCC1` (configuration not stated), which Potency is on record?
A: inconclusive: 3.16 µM [activator, single point]

Q: Which Potency does the source give for `C/C(=N\NC(=O)c1nn(C)cc1Br)c1cccc(NC(=O)C2CCCC2)c1` here?
A: inconclusive: 28.2 µM [activator, single point]

Q: Which Potency does the source give for `O=C(NCCSCc1ccc(Cl)cc1)c1cccs1` here?
A: inconclusive: 28.2 µM [activator, single point]

Q: For `Oc1cc(-n2cccn2)c(O)cc1-n1cccn1`, which Potency is on record?
A: inactive

Q: With `C=C[C@H](CC(C)C)N(Cc1ccccc1)S(=O)(=O)N(Cc1ccccc1)[C@@H](C=C)CC(C)C` as the compound, how does the Potency read?
A: inactive

Q: For `Cc1cccc(C(=O)Nc2nnc(SCC(=O)NC3CC3)s2)c1`, which Potency is on record?
A: inconclusive: 2.51 µM [activator, single point]

Q: With `Cc1nc2ccccc2c(=O)n1NC(=O)c1c(F)cccc1F` as the compound, how does the Potency read?
A: inconclusive: 5.01 µM [activator, single point]

Q: With `Cn1c(CCN2CCOCC2)nc2cc(NC(=O)COc3ccc([N+](=O)[O-])cc3)ccc21` as the compound, how does the Potency read?
A: inconclusive: 2 µM [activator, single point]

Q: With `O=C(CN1C(=O)NC2(CCCc3ccccc32)C1=O)c1ccc(F)cc1` (configuration not stated) as the compound, how does the Potency read?
A: inconclusive: 5.01 µM [activator, single point]

Q: With `CC(C)C(=O)N1CCN(c2nc(-c3ccccc3)c3c(c2C#N)CCCC3)CC1` as the compound, how does the Potency read?
A: inconclusive: 10 µM [activator, partial curve, poor fit]

Q: With `O=C1CN(C(=S)NC(=O)c2ccccc2[N+](=O)[O-])CCN1` as the compound, how does the Potency read?
A: inconclusive: 8.91 µM [activator, partial curve, poor fit]

Q: For `CCOC(=O)N1CCC(=NNC(=O)c2ccc(O)cc2)CC1`, which Potency is on record?
A: inconclusive: 5.62 µM [activator, partial curve, poor fit]

Q: Which activation does the source give for `O=C(O)[C@@H]1CCCC[C@@H]1C(=O)N1CCc2ccccc2C1CN1C(=O)c2ccccc2C1=O` (some centres not stated) here?
A: inconclusive: -74.8% [activator]

Q: With `O=C(NCC1CCS(=O)(=O)C1)Oc1ccccc1` (configuration not stated) as the compound, how does the Potency read?
A: inconclusive: 3.55 µM [activator, partial curve, poor fit]

Q: Which Potency does the source give for `CCc1cccc(NC(=O)c2cccc3c2C(=O)N(CC2CCCO2)C3)c1` (configuration not stated) here?
A: inconclusive: 17.8 µM [activator, single point]

Q: With `Cc1ccc(CN(C)C(=O)C2CCC(=O)N(CCc3ccccc3)C2)o1` (configuration not stated) as the compound, how does the Potency read?
A: inconclusive: 5.01 µM [activator, single point]

Q: Which Potency does the source give for `CC(CCc1ccccc1)NC(=O)CCCn1ncn2c(cc3occc32)c1=O` (configuration not stated) here?
A: inactive

Q: For `CCn1ncc(S(=O)(=O)Nc2cc(Cl)ccc2C)c1C`, which Potency is on record?
A: inconclusive: 1.12 µM [activator, full curve]

Q: Which Potency does the source give for `Cc1cc(OCC(=O)NNC(=O)c2cccnc2)cc(C)c1Cl` here?
A: inactive

Q: For `O=C(CN1CCN(c2cccc(Cl)c2)CC1)NCc1ccccc1`, which Potency is on record?
A: inactive

Q: With `c1ccc(CCOn2ccnc2)cc1` as the compound, how does the Potency read?
A: inconclusive: 0.891 µM [activator, partial curve, poor fit]

Q: Which Potency does the source give for `COC(=O)c1ccccc1Oc1ccc(NC(=O)C(C)(C)CCl)cc1` here?
A: inconclusive: 2 µM [activator, partial curve, poor fit]

Q: Which Potency does the source give for `CCc1ccccc1NS(=O)(=O)c1ccc(OC)c2ncccc12` here?
A: inactive

Q: For `CC(=O)Oc1ccc(C(=O)Nc2ccccc2C(=O)N2CCCCC2)cc1`, which Potency is on record?
A: inactive

Q: Which Potency does the source give for `Cc1c(N)cc(S(=O)(=O)O)cc1NC(=O)c1cccc([N+](=O)[O-])c1` here?
A: inconclusive: 31.6 µM [activator, single point]

Q: With `CC1=C(C(=O)OCc2ccc(C)cc2)C(c2ccc(O)c([N+](=O)[O-])c2)NC(=O)N1` (configuration not stated) as the compound, how does the Potency read?
A: inconclusive: 5.01 µM [activator, single point]

Q: With `O=S(=O)(c1ccc(Cl)cc1)N1CCN(Cc2cccnc2)CC1` as the compound, how does the Potency read?
A: inconclusive: 14.1 µM [activator, single point]

Q: With `O=[N+]([O-])/C=C/c1cc2ccccc2[nH]1` as the compound, how does the Potency read?
A: inactive

Q: With `COCCCNC(=S)NNC(=O)c1ccc(C(C)(C)C)cc1` as the compound, how does the Potency read?
A: inactive

Q: Which Potency does the source give for `CCn1c(C)nc2cc(C(=O)NN=C(C)c3ccc(C#N)cc3)ccc21` here?
A: inconclusive: 5.01 µM [activator, single point]

Q: With `COc1cccc(C2CC(=O)Nc3cc(OC)c(OC)cc32)c1` (configuration not stated) as the compound, how does the Potency read?
A: inconclusive: 0.501 µM [activator, partial curve, poor fit]

Q: With `Cc1ccc(NC(=O)CN(C)C(=O)COC(=O)c2nccnc2N)cc1` as the compound, how does the Potency read?
A: inconclusive: 3.55 µM [activator, partial curve, poor fit]

Q: For `COc1cc(OC)nc(-n2ncc(Br)c(Br)c2=O)n1`, which Potency is on record?
A: inconclusive: 0.631 µM [activator, full curve]

Q: With `CCc1nnc(NC(=O)CSc2nnc(CNc3ccc(Cl)cc3)o2)s1` as the compound, how does the Potency read?
A: inconclusive: 14.1 µM [activator, single point]

Q: Which Potency does the source give for `COc1cccc(-c2nc(=S)c3c(o2)CCCC3)c1` here?
A: inactive

Q: With `Cc1cc(C(F)(F)F)nn1CC(=O)Nc1cccnc1` as the compound, how does the Potency read?
A: inactive

Q: With `CNC(=O)/C(C#N)=C1\SC(Cc2ccc(F)cc2)C(=O)N1c1ccccc1C` (configuration not stated) as the compound, how does the Potency read?
A: inconclusive: 1.58 µM [activator, partial curve, poor fit]

Q: With `CSCC[C@H](NC(=O)N1CCn2c1nc1ccccc12)C(=O)NCc1ccccc1` as the compound, how does the Potency read?
A: inconclusive: 1.12 µM [activator, partial curve, poor fit]

Q: Which Potency does the source give for `COc1ccccc1CNC(=O)CN1C(=O)c2ccccc2S1(=O)=O` here?
A: inconclusive: 5.01 µM [activator, single point]

Q: With `COc1ccc(OCCCNCCc2ccccc2)cc1` as the compound, how does the Potency read?
A: inactive

Q: For `O=C(C(=O)N1CCCC1)c1c[nH]c2ccccc12`, which Potency is on record?
A: inconclusive: 6.31 µM [activator, partial curve]

Q: With `CCn1ccnc1CNC(=O)CC1C(=O)NCCN1CC(c1ccccc1)c1ccccc1` (configuration not stated) as the compound, how does the Potency read?
A: inconclusive: 12.6 µM [activator, single point]

Q: Which Potency does the source give for `COc1ccccc1C(=O)Nc1ccc(NC(=O)c2ccco2)cn1` here?
A: inconclusive: 11.2 µM [activator, single point]

Q: For `CC(=O)c1sc2nc(C)c3c(c2c1N)CCCC3`, which Potency is on record?
A: inconclusive: 12.6 µM [activator, single point]

Q: With `COc1cccc(OC)c1-c1nnc(-c2cn(C)c3ccccc23)o1` as the compound, how does the Potency read?
A: inactive

Q: For `O=S(=O)(NCc1ccccc1)c1ccc(Cl)cc1`, which Potency is on record?
A: inactive

Q: With `COc1ccc(OCC(=O)NS(=O)(=O)c2ccc(Cl)cc2)cc1` as the compound, how does the Potency read?
A: inconclusive: 28.2 µM [activator, single point]

Reference: PubChem BioAssay AID624291 (National Center for Advancing Translational Sciences (NCATS), 2012)
